{
  "source": "patent US5321130A",
  "about": "“Unsymmetrical cyanine dyes with a cationic side chain” (priority 1992, dated 1994)",
  "test_system": "calf thymus DNA",
  "test": "Dye/nucleic acid affinity: partition coefficient Kp by fluorescence titration with DNA",
  "format": "binding",
  "settings": "dye 10 nM, Ex 490 / Em 625 nm, 10% ethanol",
  "procedure": "The fluorescence intensity (F) determined in a fluorescence plate reader (CytoFluor from Millipore Corporation), is measured versus DNA concentration expressed in terms of base pairs concentration (B). […] In all the titrations, [Dye]/[Base Pair] is always […] than 3 to fulfill the requirements of the partition model.\nThe nucleic acid/water partition coefficient (Kp) representing the relative affinity of the dye for DNA is calculated from the fluorescence data according to the following formula:\n1/F=[5.6·10^7 /(Kp Fo)](1/B)+1/Fo\nwhere 5.6·10^7 (μM) is water molar concentration; B is the concentration of base pairs; and Fo is the fluorescence enhancement at saturation. Table 3 gives the Kp values of representative dyes via the partition model in the presence of 10% ethanol.",
  "note": "At least one compound was matched to its structure with a doubt left.",
  "data": [
    {"smiles": "Nc1ccc2c(c1)c(-c1ccccc1)[n+](CCCNCCNCCC[n+]1c(-c3ccccc3)c3cc(N)ccc3c3ccc(N)cc31)c1cc(N)ccc21", "note": "[Et-Et, Ethidium homodimer, reference compound]", "values": [
      {"measurement": "KP (nucleic acid/water partition coefficient)", "result": "5.0 · 10^8"}
    ]}
  ]
}
